Data as given in PubChem BioAssay AID1259424 (University of Nebraska Medical Center, 2018)
Assay: 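Seek colon cancer survival genes behaving like KSR1, using a six-gene signature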 (primary screen). Cells: human HCT116 colon cancer cells. Knock-down reagent: siRNA pool against human genes, 50 nM. Read-out: 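Six signature mRNAs by branched-DNA multiplex assay, scaled to two housekeeping genes and non-targeting median, log2; matched to mean KSR1 knockdown profile by Pearson correlation and euclidean distance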. Scale: mean correlation with KSR1 profile and KSR1 correlation: higher = expression change more like KSR1 knockdown; mean distance from KSR1 profile: higher = expression change less like KSR1 knockdown.
Shown is one part, drawn at random, of about 14,000 reagents. 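Higher correlation or smaller distance means closer resemblance to KSR1 loss; control wells, including KSR1 knockdowns, recur on many plates.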 Not stated in the record: the time to read-out.

| gene knocked down | mean correlation with KSR1 profile | mean distance from KSR1 profile | KSR1 correlation, replicate 1 | KSR1 correlation, replicate 2 | KSR1 correlation, replicate 3 |
| --- | --- | --- | --- | --- | --- |
| CEMIP (GeneID 57214) | -0.26 | 3.25 | -0.237 | -0.283 | -0.126 |
| TRAPPC8 (GeneID 22878) | 0.496 | 1.15 | 0.346 | 0.379 | 0.683 |
| NUMB (GeneID 8650) | 0.0446 | 1.98 | -0.381 | 0.112 | 0.17 |
| SLC38A3 (GeneID 10991) | -0.664 | 3.75 | -0.674 | -0.718 | -0.475 |
| PUS7L (GeneID 83448) | 0.427 | 2.06 | 0.356 | 0.404 | 0.49 |
| MYH8 (GeneID 4626) | -0.57 | 1.46 | -0.532 | -0.558 | -0.454 |
| ABCC12 (GeneID 94160) | 0.151 | 1.38 | 0.377 | 0.441 | -0.00819 |
| DMAC2 (GeneID 55101) | 0.15 | 3.46 | 0.31 | -0.0765 | 0.0388 |
| CD1A (GeneID 909) | -0.193 | 2.92 | -0.231 | -0.218 | -0.347 |
| PCDHB2 (GeneID 56133) | 0.00639 | 1.36 | -0.141 | 0.109 | -0.35 |
| PTAFR (GeneID 5724) | 0.636 | 2.15 | 0.692 | 0.754 | 0.506 |
| MMADHC (GeneID 27249) | 0.000796 | 1.23 | -0.261 | -0.0851 | -0.281 |
| RASGRP4 (GeneID 115727) | 0.00501 | 3.12 | -0.0341 | 0.0655 | 0.134 |
| NFYC (GeneID 4802) | 0.487 | 2.28 | 0.581 | 0.707 | 0.344 |
| BLOC1S5 (GeneID 63915) | -0.287 | 1.19 | -0.192 | -0.611 | -0.203 |
| ASAP2 (GeneID 8853) | -0.0593 | 2.4 | 0.121 | 0.119 | -0.148 |
| ITIH2 (GeneID 3698) | 0.388 | 1.46 | 0.402 | 0.151 | 0.493 |
| NDUFA9 (GeneID 4704) | -0.0787 | 1.63 | 0.221 | 0.0268 | -0.25 |
| NFIL3 (GeneID 4783) | -0.41 | 1.78 | -0.0675 | 0.339 | -0.533 |
| EPN3 (GeneID 55040) | -0.393 | 2.15 | -0.34 | -0.333 | -0.392 |
| RADIL (GeneID 55698) | 0.624 | 0.961 | 0.405 | 0.525 | 0.634 |
| CNOT1 (GeneID 23019) | -0.718 | 3.41 | -0.64 | -0.796 | -0.59 |
| UTP4 (GeneID 84916) | -0.219 | 2.41 | -0.0727 | -0.202 | -0.155 |
| MSRA (GeneID 4482) | -0.129 | 2.18 | -0.355 | -0.00345 | -0.163 |
| POU3F3 (GeneID 5455) | 0.15 | 1.98 | 0.149 | 0.482 | 0.00257 |
| CDSN (GeneID 1041) | 0.00668 | 1.88 | 0.105 | -0.141 | 0.0237 |
| ITGA2 (GeneID 3673) | 0.24 | 2.12 | 0.413 | 0.154 | 0.228 |
| FZD1 (GeneID 8321) | 0.784 | 1.68 | 0.731 | 0.654 | 0.855 |
| MRGPRX4 (GeneID 117196) | 0.721 | 1.53 | 0.686 | 0.783 | 0.743 |
| PSG5 (GeneID 5673) | -0.408 | 1.82 | -0.171 | -0.365 | -0.511 |
| NPY5R (GeneID 4889) | 0.773 | 1.79 | 0.805 | 0.837 | 0.663 |
| AGO1 (GeneID 26523) | 0.632 | 3.13 | 0.467 | 0.533 | 0.41 |
| COPS6 (GeneID 10980) | -0.695 | 3.97 | -0.66 | -0.737 | -0.624 |
| CREB3 (GeneID 10488) | -0.386 | 3.27 | 0.00462 | -0.426 | -0.394 |

Just “mean distance from KSR1 profile”, for 6 of the entries above:
PTAFR (GeneID 5724) = 2.15
MMADHC (GeneID 27249) = 1.23
RASGRP4 (GeneID 115727) = 3.12
NFYC (GeneID 4802) = 2.28
BLOC1S5 (GeneID 63915) = 1.19
ASAP2 (GeneID 8853) = 2.4
